# The list shows a part of the results.
# Tests used:
# Experiment in all cases: glycan array binding signal (z-score within array); higher = stronger binding
# Details in all cases: glycan notation: IUPAC condensed, linker removed
# [1] = target: Gal(b1-4)GalNAc(b1-3)[Fuc(a1-2)]Gal(b1-4)GlcNAc
# Method in brief: (§1)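 Arrays were curated from the Consortium for Functional Glycomics database, 3228 in total, and kept only where the protein sequence was available. Binding is expressed as a within-array Z-score. This score was averaged across arrays of the same protein sequence at different concentrations or buffers and across linkers, and negative values can be read as non-binding.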
# [2] = target: Gal(b1-4)Glc
# Method in brief: as §1
# [3] = target: Gal(b1-4)Glc6S
# Method in brief: as §1
# [4] = target: Gal(b1-4)GlcNAc
# Method in brief: as §1
# [5] = target: Gal(b1-4)GlcNAc(a1-6)Gal(b1-4)GlcNAc
# Method in brief: as §1
# [6] = target: Gal(b1-4)GlcNAc(b1-2)Man
# Method in brief: as §1
# [7] = target: Gal(b1-4)GlcNAc(b1-2)Man(a1-3)Man(b1-4)GlcNAc(b1-4)GlcNAc
# Method in brief: as §1
# [8] = target: Gal(b1-4)GlcNAc(b1-2)Man(a1-3)[Gal(b1-4)GlcNAc(b1-2)Man(a1-6)]Man(b1-4)GlcNAc(b1-4)GlcNAc
# Method in brief: as §1
# [9] = target: Gal(b1-4)GlcNAc(b1-2)Man(a1-3)[Gal(b1-4)GlcNAc(b1-2)Man(a1-6)]Man(b1-4)GlcNAc(b1-4)[Fuc(a1-6)]GlcNAc
# Method in brief: as §1
# [10] = target: Gal(b1-4)GlcNAc(b1-2)Man(a1-3)[Gal(b1-4)GlcNAc(b1-2)Man(a1-6)][Gal(b1-4)GlcNAc(b1-4)]Man(b1-4)GlcNAc(b1-4)[Fuc(a1-6)]GlcNAc
# Method in brief: as §1
# [11] = target: Gal(b1-4)GlcNAc(b1-2)Man(a1-3)[Gal(b1-4)GlcNAc(b1-2)Man(a1-6)][GlcNAc(b1-4)]Man(b1-4)GlcNAc(b1-4)[Fuc(a1-6)]GlcNAc
# Method in brief: as §1
# [12] = target: Gal(b1-4)GlcNAc(b1-2)Man(a1-3)[GlcNAc(b1-2)Man(a1-6)]Man(b1-4)GlcNAc(b1-4)GlcNAc
# Method in brief: as §1
# [13] = target: Gal(b1-4)GlcNAc(b1-2)Man(a1-3)[GlcNAc(b1-4)][Gal(b1-4)GlcNAc(b1-2)Man(a1-6)]Man(b1-4)GlcNAc(b1-4)GlcNAc
# Method in brief: as §1
# [14] = target: Gal(b1-4)GlcNAc(b1-2)Man(a1-3)[Man(a1-6)]Man(b1-4)GlcNAc(b1-4)GlcNAc
# Method in brief: as §1
# [15] = target: Gal(b1-4)GlcNAc(b1-2)Man(a1-6)Man(b1-4)GlcNAc(b1-4)GlcNAc
# Method in brief: as §1
# [16] = target: Gal(b1-4)GlcNAc(b1-2)Man(a1-6)[GlcNAc(b1-2)Man(a1-3)]Man(b1-4)GlcNAc(b1-4)GlcNAc
# Method in brief: as §1
# [17] = target: Gal(b1-4)GlcNAc(b1-2)Man(a1-6)[Man(a1-3)]Man(b1-4)GlcNAc(b1-4)GlcNAc
# Method in brief: as §1
# [18] = target: Gal(b1-4)GlcNAc(b1-2)[Gal(b1-4)GlcNAc(b1-4)]Man(a1-3)[Gal(b1-4)GlcNAc(b1-2)Man(a1-6)]Man(b1-4)GlcNAc(b1-4)GlcNAc
# Method in brief: as §1
# [19] = target: Gal(b1-4)GlcNAc(b1-2)[Gal(b1-4)GlcNAc(b1-4)]Man(a1-3)[Gal(b1-4)GlcNAc(b1-2)[Gal(b1-4)GlcNAc(b1-6)]Man(a1-6)]Man(b1-4)GlcNAc(b1-4)GlcNAc
# Method in brief: as §1
# [20] = target: Gal(b1-4)GlcNAc(b1-2)[Gal(b1-4)GlcNAc(b1-4)]Man(a1-3)[GlcNAc(b1-4)][Gal(b1-4)GlcNAc(b1-2)Man(a1-6)]Man(b1-4)GlcNAc(b1-4)GlcNAc
# Method in brief: as §1
# [21] = target: Gal(b1-4)GlcNAc(b1-2)[Gal(b1-4)GlcNAc(b1-4)]Man(a1-3)[GlcNAc(b1-4)][Gal(b1-4)GlcNAc(b1-2)[Gal(b1-4)GlcNAc(b1-6)]Man(a1-6)]Man(b1-4)GlcNAc(b1-4)GlcNAc
# Method in brief: as §1
# [22] = target: Gal(b1-4)GlcNAc(b1-2)[Gal(b1-4)GlcNAc(b1-6)]Man(a1-6)[Gal(b1-4)GlcNAc(b1-2)Man(a1-3)]Man(b1-4)GlcNAc(b1-4)GlcNAc
# Method in brief: as §1
# [23] = target: Gal(b1-4)GlcNAc(b1-2)[Gal(b1-4)GlcNAc(b1-6)]Man(a1-6)[Gal(b1-4)GlcNAc(b1-2)Man(a1-3)]Man(b1-4)GlcNAc(b1-4)[Fuc(a1-6)]GlcNAc
# Method in brief: as §1
# [24] = target: Gal(b1-4)GlcNAc(b1-2)[Gal(b1-4)GlcNAc(b1-6)]Man(a1-6)[GlcNAc(b1-4)][Gal(b1-4)GlcNAc(b1-2)Man(a1-3)]Man(b1-4)GlcNAc(b1-4)GlcNAc
# Method in brief: as §1
# [25] = target: Gal(b1-4)GlcNAc(b1-2)[Gal(b1-4)GlcNAc(b1-6)]Man(a1-6)[GlcNAc(b1-4)][Gal(b1-4)GlcNAc(b1-2)[Gal(b1-4)GlcNAc(b1-4)]Man(a1-3)]Man(b1-4)GlcNAc(b1-4)[Fuc(a1-6)]GlcNAc
# Method in brief: as §1
# [26] = target: Gal(b1-4)GlcNAc(b1-3)Gal(b1-3)GalNAc
# Method in brief: as §1
# [27] = target: Gal(b1-4)GlcNAc(b1-3)Gal(b1-3)GlcNAc
# Method in brief: as §1
# [28] = target: Gal(b1-4)GlcNAc(b1-3)Gal(b1-4)Glc
# Method in brief: as §1
# [29] = target: Gal(b1-4)GlcNAc(b1-3)Gal(b1-4)GlcNAc
# Method in brief: as §1
# [30] = target: Gal(b1-4)GlcNAc(b1-3)Gal(b1-4)GlcNAc(b1-2)Man(a1-3)[Gal(b1-4)GlcNAc(b1-3)Gal(b1-4)GlcNAc(b1-2)Man(a1-6)]Man(b1-4)GlcNAc(b1-4)GlcNAc
# Method in brief: as §1
binder,measurement,setting,value
"CcfD (Bacteroides vulgatus), A6KYX8 (protein) MKYKNYFKSIIYLALGAFTLGSCEDFLDRQEDEKLTFDKIWESRNTTQQYWLNAMSFLPNENGSLQGDTEPYLGASDECTIAYDRQYRWINFGTWNPSQVPYYKMDHYYKGIRECNIFLQNVYKCSDPLVTKDQLDEWYWQTRFARAYYYFLMMRDYGPVFLLGDDLLDFTASTEELYRPRNTWDQCVNYVVSEMTQCAESGVVLQQSDLPAAKWGLATVGTCHAVISRLLLYSARPLFNGNKLYSTVKNPDAPDFPELSGVKLFPELDNTKWQKAAEAAKKLIDNPCYELYRAGNDNPYEDYYGVTHETWNKELIWTDRYNGLFSWGVGTVPTGVAGTAYGAVGPTQALVDAYAMNTGWYPITGYEADGTPIVEPLSGYELASELEKSSWIYPSGGWSNKADFEIEAPNMYKDREPRFYVTVFFGGNQWLHGNSATSISFAKGGNGNKSHDYPKSGYLCNRFYDHKLNSSEGQWGNITFPVFRLGEIYLNFIEAVLECKKNGVALDPSYEALAMEKWADLRKRAGLDPITSIYGQVSTEELIQLCRKERQIELAFERHRYFDTRTWMIATQTDNGKMYGMNTSCPLDAGMKGTETPDGFWERTAFETRVFQNKHYLYPFSQRELDRNKLLTQNYGW",glycan array binding signal (z-score),[1],-0.749
same,glycan array binding signal (z-score),[2],-0.536
same,glycan array binding signal (z-score),[3],-0.345
same,glycan array binding signal (z-score),[4],-0.361
same,glycan array binding signal (z-score),[5],-0.876
same,glycan array binding signal (z-score),[6],0.318
same,glycan array binding signal (z-score),[7],3
same,glycan array binding signal (z-score),[8],-0.805
same,glycan array binding signal (z-score),[9],1.01
same,glycan array binding signal (z-score),[10],0.531
same,glycan array binding signal (z-score),[11],-0.983
same,glycan array binding signal (z-score),[12],-0.962
same,glycan array binding signal (z-score),[13],-0.597
same,glycan array binding signal (z-score),[14],-0.774
same,glycan array binding signal (z-score),[15],0.018
same,glycan array binding signal (z-score),[16],0.348
same,glycan array binding signal (z-score),[17],-0.49
same,glycan array binding signal (z-score),[18],-0.348
same,glycan array binding signal (z-score),[19],-0.221
same,glycan array binding signal (z-score),[20],-0.297
same,glycan array binding signal (z-score),[21],-0.683
same,glycan array binding signal (z-score),[22],0.003
same,glycan array binding signal (z-score),[23],-0.937
same,glycan array binding signal (z-score),[24],-0.231
same,glycan array binding signal (z-score),[25],-0.815
same,glycan array binding signal (z-score),[26],-0.673
same,glycan array binding signal (z-score),[27],-0.932
same,glycan array binding signal (z-score),[28],-0.071
same,glycan array binding signal (z-score),[29],-0.393
same,glycan array binding signal (z-score),[30],0.087

# Pulled one by one from above (2):
binder,measurement,setting,value
"CcfD (Bacteroides vulgatus), A6KYX8 (protein) MKYKNYFKSIIYLALGAFTLGSCEDFLDRQEDEKLTFDKIWESRNTTQQYWLNAMSFLPNENGSLQGDTEPYLGASDECTIAYDRQYRWINFGTWNPSQVPYYKMDHYYKGIRECNIFLQNVYKCSDPLVTKDQLDEWYWQTRFARAYYYFLMMRDYGPVFLLGDDLLDFTASTEELYRPRNTWDQCVNYVVSEMTQCAESGVVLQQSDLPAAKWGLATVGTCHAVISRLLLYSARPLFNGNKLYSTVKNPDAPDFPELSGVKLFPELDNTKWQKAAEAAKKLIDNPCYELYRAGNDNPYEDYYGVTHETWNKELIWTDRYNGLFSWGVGTVPTGVAGTAYGAVGPTQALVDAYAMNTGWYPITGYEADGTPIVEPLSGYELASELEKSSWIYPSGGWSNKADFEIEAPNMYKDREPRFYVTVFFGGNQWLHGNSATSISFAKGGNGNKSHDYPKSGYLCNRFYDHKLNSSEGQWGNITFPVFRLGEIYLNFIEAVLECKKNGVALDPSYEALAMEKWADLRKRAGLDPITSIYGQVSTEELIQLCRKERQIELAFERHRYFDTRTWMIATQTDNGKMYGMNTSCPLDAGMKGTETPDGFWERTAFETRVFQNKHYLYPFSQRELDRNKLLTQNYGW",glycan array binding signal (z-score),[24],-0.231
same,glycan array binding signal (z-score),[3],-0.345

# Source: the supplement of paper PMC8728848
